From PMC7384856
No constants are given. Whether binding was seen depends on the method and setting. In cells and extracts the contact can be indirect. Here binding means that the protein was enriched with, or labelled near, the bait; the list need not be complete. No binding means not detected with the bait. Sequences can lack the tags named with a protein. Blank lines part the entries; values can stand above or below the molecule they belong to.

By UniProt entry, the sequences of proteins in these tests, tags left out. Where a name states a change or a piece, a line headed by the entry shows the natural chain unless it says otherwise.
UniProt Q9W2N5: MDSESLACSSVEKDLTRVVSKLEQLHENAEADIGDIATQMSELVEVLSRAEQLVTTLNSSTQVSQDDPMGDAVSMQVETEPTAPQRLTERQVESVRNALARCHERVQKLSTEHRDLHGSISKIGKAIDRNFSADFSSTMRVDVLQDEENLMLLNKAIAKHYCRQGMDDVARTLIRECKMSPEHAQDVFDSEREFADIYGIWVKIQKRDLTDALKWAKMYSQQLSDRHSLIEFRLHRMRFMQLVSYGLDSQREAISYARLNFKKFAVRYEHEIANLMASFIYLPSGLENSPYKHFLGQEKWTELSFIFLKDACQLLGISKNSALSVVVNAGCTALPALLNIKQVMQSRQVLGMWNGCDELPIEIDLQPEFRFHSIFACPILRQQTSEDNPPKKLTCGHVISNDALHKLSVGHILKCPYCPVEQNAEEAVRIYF
UniProt Q9VWS1: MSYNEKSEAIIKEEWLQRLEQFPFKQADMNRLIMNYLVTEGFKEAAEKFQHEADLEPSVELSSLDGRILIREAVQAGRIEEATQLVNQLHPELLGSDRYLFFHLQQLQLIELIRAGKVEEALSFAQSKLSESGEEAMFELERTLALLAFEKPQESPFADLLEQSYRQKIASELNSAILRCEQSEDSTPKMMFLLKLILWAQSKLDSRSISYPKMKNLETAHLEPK

How the values were obtained:
[1] = molecular target: T1, ME31B-GFP (D. melanogaster) (UniProt P23128); assay: affinity purification with mass spectrometry; α-GFP immunoprecipitation of ME31B-GFP or Cup-GFP from pre-MZT embryo lysates (1-2 and 2-3 hr after egg laying) in conditions that maintain complex formation; control IgG immunoprecipitation; LC/MS/MS, spectral counts
T1 sequence: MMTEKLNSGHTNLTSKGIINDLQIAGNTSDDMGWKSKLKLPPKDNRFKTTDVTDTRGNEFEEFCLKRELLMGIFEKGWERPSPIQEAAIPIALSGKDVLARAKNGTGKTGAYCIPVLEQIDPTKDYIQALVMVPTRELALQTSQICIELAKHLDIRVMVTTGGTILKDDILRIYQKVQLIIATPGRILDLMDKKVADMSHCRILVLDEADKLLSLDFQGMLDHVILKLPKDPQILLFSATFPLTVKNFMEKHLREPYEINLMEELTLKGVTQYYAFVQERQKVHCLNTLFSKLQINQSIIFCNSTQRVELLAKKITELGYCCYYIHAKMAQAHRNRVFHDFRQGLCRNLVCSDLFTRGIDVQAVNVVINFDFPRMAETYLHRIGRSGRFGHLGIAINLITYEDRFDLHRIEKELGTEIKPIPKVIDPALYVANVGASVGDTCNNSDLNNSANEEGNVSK

[2] = molecular target: T2, Cup-GFP (D. melanogaster) (UniProt Q9VMA3); assay: as above
T2 sequence: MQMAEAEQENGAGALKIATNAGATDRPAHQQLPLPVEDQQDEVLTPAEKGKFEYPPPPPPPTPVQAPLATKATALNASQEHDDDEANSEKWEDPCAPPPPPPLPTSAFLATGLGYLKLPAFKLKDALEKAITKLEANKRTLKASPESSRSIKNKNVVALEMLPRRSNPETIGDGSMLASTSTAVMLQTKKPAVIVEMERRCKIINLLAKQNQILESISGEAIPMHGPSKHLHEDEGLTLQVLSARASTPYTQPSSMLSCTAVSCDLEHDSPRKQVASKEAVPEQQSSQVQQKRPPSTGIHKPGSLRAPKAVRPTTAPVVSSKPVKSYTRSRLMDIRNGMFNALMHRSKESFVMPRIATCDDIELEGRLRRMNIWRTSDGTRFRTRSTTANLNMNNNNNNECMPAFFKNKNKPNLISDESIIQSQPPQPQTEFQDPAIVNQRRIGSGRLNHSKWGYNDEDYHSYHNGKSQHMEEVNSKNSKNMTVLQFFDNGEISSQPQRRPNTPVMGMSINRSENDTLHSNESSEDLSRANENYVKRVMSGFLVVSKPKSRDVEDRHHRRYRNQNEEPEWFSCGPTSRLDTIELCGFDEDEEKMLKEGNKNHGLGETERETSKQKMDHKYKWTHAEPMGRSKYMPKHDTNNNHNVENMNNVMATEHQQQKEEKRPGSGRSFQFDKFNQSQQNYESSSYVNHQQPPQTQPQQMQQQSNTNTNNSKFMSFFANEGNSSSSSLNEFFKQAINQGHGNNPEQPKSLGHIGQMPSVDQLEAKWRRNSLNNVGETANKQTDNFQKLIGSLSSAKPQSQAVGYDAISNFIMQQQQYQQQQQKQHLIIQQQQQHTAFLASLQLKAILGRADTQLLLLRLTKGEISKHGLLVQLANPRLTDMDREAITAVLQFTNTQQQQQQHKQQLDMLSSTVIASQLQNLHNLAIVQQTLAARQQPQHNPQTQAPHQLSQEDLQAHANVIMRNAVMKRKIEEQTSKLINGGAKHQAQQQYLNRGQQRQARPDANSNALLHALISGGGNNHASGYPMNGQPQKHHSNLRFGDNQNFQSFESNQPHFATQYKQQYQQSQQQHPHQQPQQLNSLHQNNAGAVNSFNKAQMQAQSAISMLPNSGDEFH

Molecule: CG3295 (from UniProt Q9W2N5)
binding [1]: binds
binding [2]: binds

Molecule: CG6617 (from UniProt Q9VWS1)
binding [1]: binds
binding [2]: binds

B2: Cup (protein, UniProt Q9VMA3 1-1117)
chain: T2 sequence
binding [1]: binds

B3: RanBPM (protein, UniProt Q4Z8K6 1-962)
chain: MENVEEAPPLSSESNSNSNNSSASSSSHQLSQSGAMGAEIAPSTSRSHSHSPTPSPPVPASSHDQPHPDHPSPPLNASETEARENSPHDHSPTPTFHQTAPPPTTSSTAPQRDEREQQQQQEAPPLQQDQQENSPAQDQELHPLLDQQNQEYPAVHQDQQAEQNQELHHIEGLIRHRESQNPEEHPPQASLENRETLGREDTNQEPDEPQVRDPEIEPEAEPPPPLLLEDLDEQDSGSQDLNEQQPPLIIDANAIAETIDANAVERIDDYEDDDEEVDEEEEVVEDRVDRAGEVASVSGAQRLHSVAVLPRYSSASRAPRSSNNNNNNISNHNNNNNNSNSNSLSRRTRHFYSNNGSHFSNDMFPSHNPRSSTQTSSPRVGGRRHHSTPAASSNSPQHQGVDPLRLLYPNVNESETPLPRCWSPHDKCLSIGLSQNNLRVTYKGVGKQHSDAASVRTAYPIPSSCGLYYFEVRIISKGRNGYMGIGLTAQQFRMNRLPGWDKQSYGYHGDDGNSFSSSGNGQTYGPTFTTGDVIGCCVNFVNNTCFYTKNGVDLGIAFRDLPTKLYPTVGLQTPGEEVDANFGQEPFKFDKIVDMMKEMRSNVLRKIDRYPHLLETPENLMNRLVSTYLVHNAFSKTAEAFNGYTNQTFNEDLASIKTRQKIIKLILTGKMSQAIEHTLRSFPGLLENNKNLWFALKCRQFIEMINGADIENVNNKVTATTQTMPTNQTSVIQSTKTFKHSKSGSGNGNVNINQTQQQNNTAIPAVIKPQGGDRPDIKNMLVDDNSNKCVEHDSNSMDVEMEPCQSHSNGGDSSSNGNASAVRNSLDAIDEEMDVDVSPSSRNCGRVIEKILEFGKELSSMGQQLEKENLMTEEERQMLEDAFSLIAYSNPWSSPLGWLLCPSRRESVSTTLNSAILESLNFERRPPLEYLVAHASELIKVIGQHSLGEDAFITIDDVFPQN
binding [2]: binds

B4: ME31B (protein, UniProt P23128 1-459)
chain: T1 sequence
binding [2]: binds

Further lines, results first:

binding [1]: binds
binding [2]: binds
Molecule: Muskelin (D. melanogaster (endogenous in embryos))

binding [1]: no binding
binding [2]: no binding
B1: CG7611 (protein, UniProt Q7K0L4 1-630)
chain: MQSTSSTSSGSCSRPLEGSTLNSGGSAENVARDGGSGDDSVGIGDENPSGSSAATNGHDSKHNGFIVNNNGSSSRIVDGENNRENTSCSGVQLDKSNQEIIRLIGQYLHDVGLDKSVQTLMLESGCYLEHPSATKFREHVLMGDWSKADSDLKDLEPLIDNGKLATITEMKFILLEQKYLEHLDDGNPLDALHVLRSELTPLQHNITRVHQLSSYMMCSTNQDLYQRAKWEGKGILSRALVMERLQTFMPPSVMMSPRRLRTLLQQAVELQSQHCPCHDMAWETNLETVSLLTDHCCTTDGFPMQTIQILTDHCDEVWFCKFSPDGLKLATGSKDSTVIIWDVDPYKLTLKHRRVLDGQAQLSVSFVSWSPDSKLILVGGTEDSHELYIWNVDDGKLVVKFSQSLEDSLACGAFSRDGARFVCGGQKGQLYLCDLNGTIVDSWEGVRVNSIAFRADNKTILAADNHYRIRGYNFDSPRSDFDILREPHPIMTFSINSADRLALLNVSNQGLHLWDIEDKCLVRRFQGIRQSNFAIHSCFGGVNESFVASGSEDKVVYIWHIKREEPLAKLAGHTKTVNCVSWNPVYPSLLASASDDATVRIWGPKPNGSSATTESDDCSSSSSSSSWNMT
